Results published in patent US20220002293A1, “8-CYCLOPENTYL-7-OXO-2-(4-PIPERAZIN-1-YL-PHENYLAMINO)-7, 8-DIHYDRO-PYRIDO [2,3-D]PYRIMIDINE-6-CARBONITRILE AND USES THEREOF IN TREATING PROLIFERATIVE DISORDERS” (ONCONOVA THERAPEUTICS, INC., priority 2018, published 2022).

Tested on: HeLa (human cervical cancer)
Experiment: Cytotoxicity assay (CellTiter-Glo), HeLa
Type: cell-based
Settings: 72 h, read-out: Absolute IC50
From the text: Determination of the Half Maximal Inhibition Concentration IC50: • 1.

## N.N.[Cl][Pt][Cl] [Cisplatin, reference compound]
  IC50: 0.27 µM
